No constants are given. Whether binding was seen depends on the method and setting. In cells and extracts the contact can be indirect. Binding can be weak; no strength is given. For part of these data: Where a sequence is shown, tags or fusion partners need not be part of it.
Experiments:
[1] = biological target: BIG2 (endogenous) (human (endogenous in HeLa)) (UniProt Q9Y6D5); test: co-IP; HeLa cells transfected with HA-tagged ARF mutants for 24 h; endogenous BIG2 immunoprecipitated from cell lysates; input and bound material immunoblotted with anti-HA
[2] = biological target: T1, GST-BIG2/1–548 (UniProt Q9Y6D5); test: pull-down; lysates of HeLa cells transfected with HA-tagged ARF Q71L mutants for 24 h incubated with purified GST or GST chimeras of BIG2; input and bound material immunoblotted with anti-HA; only the target purified
T1 sequence: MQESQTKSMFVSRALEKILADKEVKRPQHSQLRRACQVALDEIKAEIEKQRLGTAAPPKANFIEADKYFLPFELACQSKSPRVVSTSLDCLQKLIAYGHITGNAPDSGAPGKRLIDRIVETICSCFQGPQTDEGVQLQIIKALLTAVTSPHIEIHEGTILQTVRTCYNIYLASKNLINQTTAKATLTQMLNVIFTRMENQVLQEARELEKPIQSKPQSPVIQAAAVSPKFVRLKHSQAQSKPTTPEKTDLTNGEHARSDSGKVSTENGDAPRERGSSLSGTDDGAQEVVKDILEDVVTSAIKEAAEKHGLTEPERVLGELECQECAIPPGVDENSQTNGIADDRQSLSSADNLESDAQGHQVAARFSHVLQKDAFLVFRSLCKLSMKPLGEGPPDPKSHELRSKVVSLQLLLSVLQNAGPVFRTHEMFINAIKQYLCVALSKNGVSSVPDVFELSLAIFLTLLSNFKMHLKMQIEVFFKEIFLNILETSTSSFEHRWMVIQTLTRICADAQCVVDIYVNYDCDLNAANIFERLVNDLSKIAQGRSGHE

By UniProt entry, the sequences of proteins in these tests, tags left out. Where a name states a change or a piece, a line headed by the entry shows the natural chain unless it says otherwise.
UniProt P84077: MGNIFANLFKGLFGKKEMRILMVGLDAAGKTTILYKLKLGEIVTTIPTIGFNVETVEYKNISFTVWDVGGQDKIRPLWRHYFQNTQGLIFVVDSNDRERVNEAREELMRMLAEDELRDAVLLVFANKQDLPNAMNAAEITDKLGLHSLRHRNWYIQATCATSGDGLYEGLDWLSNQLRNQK
UniProt P18085: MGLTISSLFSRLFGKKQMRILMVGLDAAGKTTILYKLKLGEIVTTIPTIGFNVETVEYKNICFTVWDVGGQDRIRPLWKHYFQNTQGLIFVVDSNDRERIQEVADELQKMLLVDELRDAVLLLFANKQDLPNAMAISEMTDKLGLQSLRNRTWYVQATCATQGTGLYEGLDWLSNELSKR
UniProt P84085: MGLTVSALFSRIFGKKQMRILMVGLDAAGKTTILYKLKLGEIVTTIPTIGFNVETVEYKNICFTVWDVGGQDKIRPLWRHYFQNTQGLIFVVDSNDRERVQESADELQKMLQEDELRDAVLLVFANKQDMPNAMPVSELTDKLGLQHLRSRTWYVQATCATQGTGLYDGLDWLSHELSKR

[3] = biological target: T2, GST chimera containing the DCB (amino acids 1–250) domain of BIG2 (UniProt Q9Y6D5); test: as above
T2 sequence: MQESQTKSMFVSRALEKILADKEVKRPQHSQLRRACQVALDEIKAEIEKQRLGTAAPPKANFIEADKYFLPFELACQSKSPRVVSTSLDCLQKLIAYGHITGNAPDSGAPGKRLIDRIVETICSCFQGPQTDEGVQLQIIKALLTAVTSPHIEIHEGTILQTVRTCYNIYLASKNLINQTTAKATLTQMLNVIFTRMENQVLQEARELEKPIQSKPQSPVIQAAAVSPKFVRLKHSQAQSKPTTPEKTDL

Row | Substance | binding [1] | binding [2] | binding [3]
1 | ARF1/Q71L, HA-tagged (from UniProt P84077) | no binding | binds weakly | no binding
2 | ARF4/Q71L, HA-tagged (from UniProt P18085) | binds | binds | binds
3 | ARF5/Q71L, HA-tagged (from UniProt P84085) | binds | binds | binds
